Measurements reported in PubChem BioAssay AID540275 (National Center for Advancing Translational Sciences (NCATS), 2011).
About 620 (0.19%) of roughly 320,000 compounds were called active. The inconclusive results got no clear call from the source; some entries with a clear call stand among them for comparison. Rule as the data show it: active = activation above about 80%; inconclusive = between about 30% and that limit; inactive = weaker than that.

By UniProt entry, the sequences of proteins in these tests, tags left out.
UniProt Q8NER1, whole entry, looked up: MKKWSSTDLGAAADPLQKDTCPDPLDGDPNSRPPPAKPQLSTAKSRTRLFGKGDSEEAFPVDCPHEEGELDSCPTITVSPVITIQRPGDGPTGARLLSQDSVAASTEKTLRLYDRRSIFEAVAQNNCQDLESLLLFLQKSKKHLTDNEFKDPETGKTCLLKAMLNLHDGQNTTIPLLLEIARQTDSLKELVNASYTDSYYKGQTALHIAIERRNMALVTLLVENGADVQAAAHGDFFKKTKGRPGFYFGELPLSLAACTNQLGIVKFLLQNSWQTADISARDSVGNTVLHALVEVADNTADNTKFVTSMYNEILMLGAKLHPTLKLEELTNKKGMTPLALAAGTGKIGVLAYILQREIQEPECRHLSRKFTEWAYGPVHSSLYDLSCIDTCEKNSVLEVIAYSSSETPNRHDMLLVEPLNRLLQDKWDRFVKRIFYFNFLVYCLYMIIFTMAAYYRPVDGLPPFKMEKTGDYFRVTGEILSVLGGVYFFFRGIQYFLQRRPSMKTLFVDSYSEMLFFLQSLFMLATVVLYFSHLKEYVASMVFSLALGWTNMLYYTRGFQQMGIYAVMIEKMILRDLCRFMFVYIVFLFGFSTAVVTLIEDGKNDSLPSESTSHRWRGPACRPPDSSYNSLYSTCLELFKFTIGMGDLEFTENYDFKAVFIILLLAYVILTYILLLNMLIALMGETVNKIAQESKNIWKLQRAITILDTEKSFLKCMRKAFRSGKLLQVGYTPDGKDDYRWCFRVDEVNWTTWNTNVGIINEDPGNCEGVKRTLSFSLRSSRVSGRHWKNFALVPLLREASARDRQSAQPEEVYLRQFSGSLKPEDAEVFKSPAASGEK

Target: Transient receptor potential cation channel subfamily V member 1 (Homo sapiens) (UniProt Q8NER1)
Experiment: HTS Assay for Compounds that Act as Agonists of the Vanilloid Receptor 1; also: 0% is about no effect
Settings: TRPV1-expressing cells, Fluo-8 calcium influx, agonist mode; at 8.33 µM, active compounds read high
Excerpt: The transient receptor potential ion channel, family V, number 1, (TRPV1) is one of the most important molecular transducers of painful stimuli and a potential target for analgesic drug development. Although recent clinical trials with orthosteric antagonists have not produced a successful drug because of a hyperthermia side effect and their tendency to block thermal noxious pain, this ion channel is undeniably well placed in the pain pathway, and the idea of blocking pain signals before they enter the CNS is an excellent concept and of proven efficacy when TRPV1 agonists are used. We propose a new approach involving allosteric modulation to impose an activity-dependent constraint within the context of inflammation and tissue damage that would alter the responsiveness of the channel in a way that an orthosteric vanilloid antagonist cannot achieve. We believe that the allosteric modulator approach has not been explored for this target. The main goal of this proposal is to identify additional, new, potent allosteric modulators of TRPV1 that can be used to investigate TRPV1 function. Our recent report provides evidence of proof of concept, but the compounds are just at the edge of utility in terms of potency. […] The question of whether they can be used as analgesic agents is complex, but if suitable compounds are identified then testing for analgesic properties will be conducted. NIH Chemical Genomics Center [NCGC] NIH Molecular Libraries Probe Centers Network [MLPCN] MLPCN Grant: MH089480-1A1 Assay Submitter (PI): Michael Iadarola, National Institute of Dental and Cranofacial Research
Upon TRPV1 activation in TRPV1 cells, the channel opens and extracellular cations flow through the channel into the cytosol. A calcium binding dye (Fluo-8) becomes fluorescent when bound to calcium. This dye is pre-loaded into cells and is used as a marker for calcium influx. The amount of accumulated calcium is precisely quantified using the FDSS kinetic reader and the calcium dye. For the HTS assay, freshly prepared cells are plated at a density of 2000/well in 3 ul medium in 1536-well plates and cultured overnight at 35.5C. Cells will be loaded with 1 ul of the homogeneous calcium dye (ABD Bioquest) at room temperature for 40 to 90 minutes. Plates will be loaded into the FDSS kinetic reader and a 1 sec / cycle for 10 second baseline signal will be measured. Compound library will then be added with a pintool at 23 nl and measured kinetically for 3 minutes. This portion of the read is considered the agonist portion of the screen. Following the 3 minutes of incubation, an on board pipettor will deliver 1 ul of capsaicin for a final concentration equal to the EC20. Signal will be measured kinetically for an additional 2 minutes. This portion of the read is considered the allosteric enhancer portion of the screen. The FDSS reader has a standard filter set capable of measuring calcium bound Fluo-8 (ex=480 and em=520 nm).

Compound	activation
O=C(Nc1nc2n(n1)C(c1ccccc1)CC(c1ccc(Cl)cc1)N2)c1ccco1 (stereo not given)	inactive: 0.265%
Cc1csc(/C(=N\O)c2csc(C)n2)n1	inactive: 2.83%
S=C(NCc1ccncc1)Nc1ccc(Cl)cc1	inconclusive: 51.5%
O=C(N/N=C/c1cccnc1)c1ccc(NC(=O)c2ccc(F)cc2)cc1	inconclusive: 32.8%
COc1ccc(-n2c(-c3ccc(C)cc3)n[nH]c2=S)cc1	inactive: 12.2%
Cc1cccc(-n2c(-c3ccco3)n[nH]c2=S)c1	inactive: -0.68%
O=C(COc1ccccc1)Nc1ccc(-c2ccc(N3CCOCC3)nn2)cc1	inactive: -4.06%
CC(C)CC1CC(C)(c2csc(NNC(=O)c3ccccc3)n2)OC1=O (stereo not given)	inactive: 12.4%
O=C(COc1ccc2ccccc2c1)N1CCN(C(=O)c2ccc([N+](=O)[O-])cc2)CC1	inactive: 2.25%
CC(NC(=O)C(c1ccccc1)c1ccccc1)C(=O)N1CCCCC1 (stereo not given)	inconclusive: 37.3%
O=C(NCC1COc2ccccc2O1)c1ccc(Br)s1 (stereo not given)	active: 85.3%
CSCCC(NC(=O)c1ccc([N+](=O)[O-])cc1Cl)C(=O)OCC(=O)C12CC3CC(CC(C3)C1)C2 (stereo not given)	inconclusive: 35.7%
CCc1ccc2nc(NC(=O)c3cc(C)on3)sc2c1	inconclusive: 53.3%
O=C(CCSc1ccc(Cl)cc1)c1ccco1	inactive: 7.18%
CCC(C)NC(=O)CCc1c(C)nc2c(c(C)nn2-c2ccccc2)c1C (stereo not given)	inconclusive: 66.2%
Cc1ccc(NC(=O)c2noc3c2CCC3)cc1C	inconclusive: 46.4%
CC1CC(NC(=O)CCn2c(=O)oc3ccccc32)CC(C)(C)C1 (stereo not given)	inconclusive: 50.3%
Cc1c(C)c(C)c2[nH]c(-c3ccc4c(c3)OCO4)nc2c1C	inconclusive: 36.2%
CNc1oc(/C=C/c2ccccc2)nc1C#N	inconclusive: 30.9%
CCOC(=O)C1(CCc2ccccc2)CCN(C2Cc3ccccc3C2)CC1	inactive: 5.03%
COc1ccc(OC)c(Nc2nc(C)nc3c2oc2ccccc23)c1	inconclusive: 66.2%
Clc1ccc(-n2nnnc2CN2CCCCC2)cc1Cl	inconclusive: 37.2%
Cc1cc(NC(=O)c2oc3ccccc3c2C)ccc1-n1cnnn1	inconclusive: 67.6%

Compound	activation
CC(C)Sc1nnc([C@H](Cc2ccccc2)NC(=O)OC(C)(C)C)o1	inconclusive: 35%
O=C(/C=C/c1ccccc1)C1=C(O)C(=O)N(CCO)C1c1ccc2c(c1)OCO2 (stereo not given)	inactive: -1.21%
Cc1cccc(N2CCN(C(=O)Cn3ccc4ccccc4c3=O)CC2)c1C	inconclusive: 42.3%
COc1ccc(CN2C(=O)[C@@H]3C(c4ccc(F)cc4)=NO[C@@H]3C2=O)cc1	inconclusive: 45.1%
Cc1ccc2nc(-c3ccc(NC(=O)COC(=O)c4ccco4)cc3)sc2c1	inactive: 1%
CCCc1nc2ccccc2c(=O)n1/N=C/c1ccc(O)cc1O	inactive: -4.78%
Cc1ccc(/C=N/NC(=O)c2ccco2)cc1	inconclusive: 47.6%
CC1(C)OC(=O)C(=CNNc2c(Cl)cc(Cl)cc2Cl)C(=O)O1	inactive: 4.16%
CC(=O)COc1ccc2cc(-c3ccccc3)c(=O)oc2c1	inactive: 9.32%
CC(C)(C)N(Cc1ccccc1)C(=O)COC(=O)CNC(=O)c1ccco1	inactive: 5.85%
CCOC(=O)N1N=C(C)CC1(O)c1ccc(Cl)cc1 (stereo not given)	inactive: -0.596%
Cc1c(/C=N/O)c2ccccn2c1C=O	inactive: -1.58%
Cc1ccc(-c2csc3nc(SCC(=O)Nc4ccc(Cl)c(C(=O)O)c4)[nH]c(=O)c23)cc1	inactive: -3.09%
Cc1nc2ccccc2cc1OCc1ccc(F)cc1	inconclusive: 75.7%
Cc1ccc(NC(=O)c2ccccc2)cc1OC(=O)c1ccccc1	inconclusive: 67.3%
Cc1ccc(C2(C)NC(=O)N(CC(=O)Nc3ccccc3N3CCCC3)C2=O)cc1 (stereo not given)	inactive: -12.2%
C[C@@H](NC(=O)c1nc[nH]c1C(=O)NCC(=O)OC(C)(C)C)c1ccccc1	inconclusive: 41%
Cc1cc2ncn(CC3CC3(Cl)Cl)c2cc1C (stereo not given)	inconclusive: 33.7%
Cc1ccc(-n2c(C)nn(Cc3ccc([N+](=O)[O-])cc3)c2=O)cc1	inconclusive: 45.7%
O=C(Nc1cccc(C(=O)O)c1)/C(=C\c1ccco1)NC(=O)c1ccccc1Cl	inactive: 1.49%
O=C(CCc1ccccc1)NC(=S)Nc1ccc(S(=O)(=O)N2CCOCC2)cc1	inactive: -2.7%
CC1(C)CC2CC(C)(CN2/C=N/c2sc3c(c2C#N)CC(C)(C)NC3(C)C)C1 (stereo not given)	inconclusive: 31.5%
CN(C)c1ccc(N/C=C/C(=O)c2ccco2)cc1	inconclusive: 32.9%

Compound	activation
COc1cccc(N2CCN(C(=O)C3CCN(S(=O)(=O)c4ccc5c(c4)CC(C)N5C(C)=O)CC3)CC2)c1 (stereo not given)	inactive: 1.36%
Cc1ccc(NC2=C(NC(=O)c3ccccc3)C(=O)c3ccccc3C2=O)cc1Cl	inconclusive: 31.5%
CCc1ccc(/C=N/NC(=O)Cc2cccn2C)cc1	inconclusive: 36.2%
CC(CCc1ccccc1)NC(=O)CSc1cccc[n+]1[O-] (stereo not given)	inactive: -1.22%
COc1ccc(C(=O)Nc2nnc(-c3cccs3)s2)cc1	inactive: -5.55%
O=C(NC1CCCN(c2ccc(C(F)(F)F)cn2)C1)c1ccnc(Cl)c1 (stereo not given)	inconclusive: 71.3%
O=C(Nc1ccc2c(c1)CCC2)c1ccccc1Br	inconclusive: 31.4%
Cc1ccc(/C=N/NC(=O)c2c(C)nc3ccc(Br)cn23)cc1	inactive: 8.63%
Cc1ccc(Nc2cc(C)nc(N3CCOCC3)n2)cc1	inconclusive: 67.6%
O=C(C1CCCN(S(=O)(=O)c2cccc3nonc23)C1)N1CCN(c2ccccc2Cl)CC1 (stereo not given)	inactive: 7.9%
CN1/C(=C\C=C(/C#N)C(=O)Nc2ccc(Cl)cc2)C(C)(C)c2ccccc21	inconclusive: 35.3%
O=C(Nc1ccc(Cl)cc1)c1cc(S(=O)(=O)N2CCOCC2)cs1	inconclusive: 74.8%
CC(C)(C)n1nnnc1C(c1cccs1)N(Cc1cccnc1)CC1CCCO1 (stereo not given)	inconclusive: 54.6%
COc1cc(OC)c(OC)cc1CCC(C)NCCC(c1ccccc1)c1ccccc1 (stereo not given)	inactive: 5.44%
Cc1ccc(-n2nc3c(=O)n(CCCC(=O)N4CCC(C)CC4)nc(C)c3c2C)cc1	inactive: -2.15%
CCOc1ccccc1N(C(=O)c1snc(C(N)=O)c1N)C(C(=O)NCCC(C)C)c1ccco1 (stereo not given)	inconclusive: 31.5%
COc1ccc(CN2C(=O)C(C)N(C(=O)c3c(F)cccc3F)c3ccccc32)cc1 (stereo not given)	inconclusive: 34.5%
CC(C)(C)OC(=O)[C@H](Cc1ccccc1)NC(=O)c1[nH]cnc1C(=O)Nc1cccc(Cl)c1	inconclusive: 53.1%
O=S(=O)(c1ccc2nnn(OCc3ccccc3)c2c1)N1CCOCC1	inconclusive: 78.3%
O=C(NCCc1csc(-c2cccnc2)n1)c1ccccc1	inactive: 1.91%
O=C(CCC(=O)N1CCSc2ccccc21)Nc1cccc(F)c1	inactive: 10.6%
O=C(c1cc(-c2ccc(F)cc2)on1)N1CCCC1	inconclusive: 38.7%
COc1ccc2c(CC(=O)NCc3ccc4c(c3)OCO4)coc2c1	inconclusive: 35.6%

Quoted at random: 2 entries already listed, in no set order.
Compound	activation
O=S(=O)(c1ccc2nnn(OCc3ccccc3)c2c1)N1CCOCC1	inconclusive: 78.3%
COc1cc(OC)c(OC)cc1CCC(C)NCCC(c1ccccc1)c1ccccc1 (stereo not given)	inactive: 5.44%

(list continues)

Compound	activation
Cc1oc(-c2ccoc2)nc1CN(Cc1ccccc1)CC1CC1	inconclusive: 33.3%
O=C(c1nc2ccccn2c1CN1CCC(Cc2ccccc2)CC1)N1CCCC1	inactive: 20.7%
CCc1sc(C(=O)NCc2cc(C)n(C)n2)cc1Br	inconclusive: 30.6%
CC(=O)c1ccc(OCc2cc(C(=O)N3CC[C@@H]4CCCC[C@H]4C3)no2)cc1	inconclusive: 49.2%
O=C(N=C1SC2CS(=O)(=O)CC2N1c1ccc(Br)cc1Cl)C1CC1 (stereo not given)	inactive: 1.57%
COc1ccccc1[C@]1(C)ON(c2ccccc2C(F)(F)F)C1=O	inactive: 3.1%
CCN1CSC(=S)N(Cc2ccc(OC)cc2)C1	inactive: 22%
O=C(Cc1ccc(Cl)cc1)Nc1ccc(Br)cn1	inconclusive: 32.5%
Cc1ccc(S(=O)(=O)Nc2ccc(O)c3ccccc23)c(C)c1	inactive: 2.15%
COc1ccccc1-n1c(N)c(C(=O)NCC2CCCO2)c2nc3ccccc3nc21 (stereo not given)	inconclusive: 34.7%
COc1ccc2c(c1)[nH]c1c(=O)n(CCN3CCOCC3)cnc12	inactive: 1.49%
CC(CC(=O)Nc1cccnc1)c1ccccc1 (stereo not given)	inconclusive: 31.8%
CC(=O)c1ccc(NC(=O)c2noc3c2CCC3)cc1	inconclusive: 63.1%
Cc1ccc(C(=O)N2CCC(n3nccc3NC(=O)c3ccccc3C)CC2)cn1	inactive: -8.69%
C#CCOCCOCCOCCNc1nc(N2CCN(C(=O)CCCCCCCCCCNC(=O)Cn3cc(CCCCCN)nn3)CC2)nc(N2CCN(C(=O)CCCCCCCCCCNC(=O)[C@@H](CCC(=O)O)n3cc(CCCCCN)nn3)CC2)n1	inactive: -4.53%
O=[N+]([O-])c1ccccc1Nc1c2ccccc2nc2ccccc12	inactive: 4.45%
COC(=O)c1cc(CSc2nc3ccc(C)cc3[nH]2)oc1C	inactive: 28%
N#C/C(=C(/O)c1ccc([N+](=O)[O-])cc1)c1nnc2n1CCCCC2	inactive: -2.54%
O=C(NCc1ccncc1)c1cccc(S(=O)(=O)N2CCc3ccccc32)c1	inconclusive: 63.3%
CCSc1ccccc1C(=O)N1CCN(Cc2ccc3c(c2)OCO3)CC1	inconclusive: 30.8%
CCc1sc(C(=O)N2CCN(CC(=O)Nc3cccc(F)c3)CC2)cc1C	inconclusive: 34.2%

Sorted by length of the SMILES (ascending): three of the compounds above
Compound	activation
S=C(NCc1ccncc1)Nc1ccc(Cl)cc1	inconclusive: 51.5%
Cc1cc(NC(=O)c2oc3ccccc3c2C)ccc1-n1cnnn1	inconclusive: 67.6%
Cc1c(C)c(C)c2[nH]c(-c3ccc4c(c3)OCO4)nc2c1C	inconclusive: 36.2%
